MIC data for 1 compound are collected here from patent US11780838B1, “Pyrrolo[3,2-b]quinoline compounds as antibacterial agents” (King Faisal University, priority 2023, dated 2023).

Experiment in all cases: In vitro antibacterial activity (MIC, CLSI M07-A10 dilution)
Common to all, as to assay type: cell-based

Test [1] relates to Escherichia coli MTCC 443. As to conditions: MTCC443.
The subject of test [2] is Staphylococcus aureus ATCC 29213. As to conditions: ATCC29213.
For test [3], the system named is Pseudomonas aeruginosa MTCC 741. Conditions: MTCC741.
For test [4], the system named is Bacillus subtilis MTCC 441. As to conditions: MTCC441.
The test system of test [5] is Enterococcus faecium ATCC 51559 (VRE resistant).
Test [6] deals with Staphylococcus aureus ATCC BAA-1556 (MERSA resistant). Conditions: ATCCBAA1556.
For test [7], the system named is Staphylococcus epidermidis.
The subject of test [8] is Enterococcus faecium ATCC 35667. As to conditions: ATCC35667.

Converted amounts (≈) assume the structure as drawn.

The MIC is the least concentration at which growth counts as inhibited. A high value points to a need for much substance. For `CN[C@H](CC(C)C)C(=O)N[C@H]1C(=O)N[C@@H](CC(N)=O)C(=O)N[C@H]2C(=O)N[C@H]3C(=O)N[C@H](C(=O)N[C@H](C(=O)O)c4cc(O)cc(O)c4-c4cc3ccc4O)[C@H](O)c3ccc(c(Cl)c3)Oc3cc2cc(c3O[C@@H]2O[C@H](CO)[C@@H](O)[C@H](O)[C@H]2O[C@H]2C[C@](C)(N)[C@H](O)[C@H](C)O2)Oc2ccc(cc2Cl)[C@H]1O` [Vancomycin, reference compound], the MIC in test [1] was more than 128 µg/mL; in test [2], 1 µg/mL (≈ 0.69 µM); in test [3], more than 128 µg/mL; in test [4], 0.5 µg/mL (≈ 0.345 µM); in test [5], more than 128 µg/mL; in test [6], 1 µg/mL (≈ 0.69 µM). In addition, the MIC in test [7] was found to be 1 µg/mL (≈ 0.69 µM); in test [8], 0.5 µg/mL (≈ 0.345 µM).
